Laboratory results: patent US20210292397A1 (LA TROBE UNIVERSITY, published 2021)

Key:
[1] = target: C-term heparin (Homo sapiens); assay: ELISA of fibronectin fragments and full-length fibronectin with UpaB
Laminin (Homo sapiens) = assay: ELISA, absorbance at 405 nm, n=9, PBS as control

B1: UpaB α-domain (α^UpaB) from UPEC strain CFT073 (other)
chain: TDSTVSTDPVTLNTEKTTLDQDVVINGDNKITAVTIETSDSDKDLNVTFGGHDITAASTVNQDFVEGVKVSGNKNVVINATDSTITAQGEGTYVRTAMVIDSTGDVVVNGGNFVAKNEKGSATGISLEATTGNNLTLNGTTINAQGNKSYSNGSTAIFAQKGNLLQGFDGDATDNITLADSNIINGGIETIVTAGNKTGIHTVNLNIKDGSVIGAANNKQTIYASASAQGAGSATQNLNLSVADSTIYSDVLALSESENSASTTTNVNMNVARSYWEGNAYTFNSGDKAGSDLDINLSDSSVWKGKVSGAGDASVSLQNGSVWNVTGSSTVDALAVKDSTVNITKATVNTGTFASQNGTLIVDASSENTLDISGKASGDLRVYSAGSLDLINEQTAFISTGKDSTLKATGTTEGGLYQYDLTQGADGNFYFVKNTHKASNASSVIQAMAAAPANVANLQADTL
notes: also called α^UPaB (native)
[1]
  binding: no binding
Laminin (Homo sapiens)
  binding: binds

No constants are given. Whether binding was seen depends on the method and setting. For some assays here: A result given as binding can be weak or reduced; the word gives no strength.
